PubChem BioAssay AID686938 – Drosophila RNAi Screening Center | 2013

Aim: 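Looking for CRAC channel components and the factors controlling them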 (primary screen)
Cell system: Drosophila S2R+ cells
Reagents: long dsRNA against Drosophila genes, about 0.25 µg dsRNA per well, roughly 10,000 cells
Timing: 5 days of knock-down before the calcium assay
Conditions: thapsigargin (SERCA pump blocker) to empty calcium stores; entry signal taken 4 min after adding it
Read-out: 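Per-well fluo-4 fluorescence in two replicates, unnormalised, measured in resting cells and 4 min after store depletion by the SERCA blocker thapsigargin; ratio of the two present in few wells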
Scale: calcium entry signal: higher = stronger calcium signal after store depletion; resting calcium signal: higher = higher resting calcium signal
Units: calcium entry signal in fluorescence units; resting calcium signal in fluorescence units
Active means: 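Hit if the duplicate-averaged plate z-score for entry over resting signal is under −3; wells with weak total dye signal (Fmax z < −2) or more than 5 off-targets removed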
Meaning of the calls: active = strongly reduced calcium entry; inactive = no strong reduction
The screen tested about 23,000 reagents; this is an unselected part of those with a known target gene and a result. Of all reagents, 75 (0.33%) are marked active. 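Raw plate signals without normalisation; calls rest on plate z-scores that were not deposited; ratio present for only 364 wells.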 A plus sign joins genes that one reagent is predicted to hit. Reagent sequences are not shown. Not given: the dose of the treatment.

gene knocked down | amplicon | calcium entry signal, replicate 1 | calcium entry signal, replicate 2 | resting calcium signal, replicate 1 | resting calcium signal, replicate 2 | call
CG7239 | DRSC03038 | 3.94e7 | – | 2.24e7 | – | inactive
CG7239 | DRSC23113 | 5.33e7 | 3.12e7 | 2.36e7 | 1.36e7 | inactive
CG12909 | DRSC06224 | 4.75e7 | 4.56e7 | 2.19e7 | 2.07e7 | inactive
AMPdeam | DRSC18996 | 2.21e7 | 3.10e7 | 1.14e7 | 1.38e7 | inactive
AMPdeam | DRSC19366 | 2.41e7 | 2.55e7 | 1.19e7 | 1.27e7 | inactive
AMPdeam | DRSC19368 | 2.06e7 | 2.93e7 | 1.19e7 | 1.28e7 | inactive
AMPdeam | DRSC19727 | 1.98e7 | 2.62e7 | 1.04e7 | 1.16e7 | inactive
rempA | DRSC00327 | 2.29e7 | 2.72e7 | 1.16e7 | 1.23e7 | inactive
CG31106 | DRSC14655 | 3.84e7 | 6.20e7 | 2.01e7 | 2.49e7 | inactive
CG14341 | DRSC00371 | 4.71e7 | 5.48e7 | 1.93e7 | 2.24e7 | inactive
edin | DRSC09488 | 1.94e7 | 2.48e7 | 1.00e7 | 1.00e7 | inactive
CG11309 | DRSC11650 | 3.49e7 | 3.70e7 | 1.59e7 | 2.19e7 | inactive
CG42496 + Ppcdc | DRSC03886 | 2.88e7 | 5.49e7 | 1.45e7 | 2.46e7 | inactive
CG30466 | DRSC05556 | 6.05e7 | 5.51e7 | 3.23e7 | 2.19e7 | inactive
crq | DRSC00810 | 2.81e7 | 3.03e7 | 1.43e7 | 1.38e7 | inactive
CAH2 | DRSC10746 | 3.00e7 | 3.91e7 | 1.56e7 | 1.90e7 | inactive
CG12209 | DRSC06119 | 3.24e7 | 4.09e7 | 1.60e7 | 1.75e7 | inactive
eIF4A | DRSC03526 | 1.58e7 | 1.79e7 | 9.78e6 | 1.10e7 | inactive
Cp190 | DRSC16607 | 3.74e7 | 5.26e7 | 1.76e7 | 2.20e7 | inactive
CG8329 | DRSC10978 | 4.75e7 | 3.78e7 | 3.15e7 | 1.66e7 | inactive
Mst84B | DRSC12579 | 4.52e7 | 3.89e7 | 2.29e7 | 1.81e7 | inactive
asRNA:CR43468 + Lfg | DRSC06853 | 3.25e7 | 3.75e7 | 1.76e7 | 1.73e7 | inactive
Wdr24 | DRSC14151 | 4.09e7 | 4.38e7 | 2.14e7 | 2.06e7 | inactive
Cln3 | DRSC10520 | 4.07e7 | 6.24e7 | 1.99e7 | 2.39e7 | inactive
Cpr76Bc | DRSC11062 | 2.54e7 | 4.91e7 | 1.25e7 | 1.99e7 | inactive
beta4GalNAcTB | DRSC14869 | 3.65e7 | 6.35e7 | 2.01e7 | 2.60e7 | inactive
cpa | DRSC04080 | 3.28e7 | – | 1.72e7 | – | inactive
Ugt303B2 | DRSC14198 | 3.38e7 | 3.28e7 | 1.88e7 | 1.46e7 | inactive
Ugt303B2 | DRSC22864 | 2.02e7 | 3.65e7 | 1.19e7 | 1.61e7 | inactive
alpha-Est2 | DRSC12614 | 3.13e7 | 2.84e7 | 1.47e7 | 1.35e7 | inactive
CG18682 (retired record) | DRSC15373 | 3.52e7 | 6.44e7 | 1.77e7 | 2.36e7 | inactive
CG18682 (retired record) | DRSC15374 | 3.10e7 | 4.09e7 | 1.58e7 | 1.95e7 | inactive
mtrm | DRSC10322 | 4.79e7 | 3.88e7 | 3.00e7 | 1.57e7 | inactive
mtrm | DRSC23076 | 7.70e7 | 2.14e7 | 3.24e7 | 9.91e6 | inactive
Usp5 | DRSC08244 | 3.34e7 | 3.57e7 | 1.88e7 | 1.86e7 | inactive
Csl4 | DRSC02944 | 3.56e7 | 4.67e7 | 1.61e7 | 1.99e7 | inactive
Csl4 | DRSC22664 | 2.47e7 | 1.96e7 | 1.32e7 | 9.83e6 | inactive
sad | DRSC16630 | 3.86e7 | 3.86e7 | 1.81e7 | 1.98e7 | inactive
CG3335 | DRSC10358 | 1.92e7 | 2.42e7 | 1.25e7 | 1.45e7 | inactive
Srr | DRSC16382 | 2.79e7 | 2.57e7 | 1.41e7 | 1.33e7 | inactive

An excerpt from above, reduced to “resting calcium signal, replicate 1”:
CG8329 [DRSC10978]: 3.15e7
Mst84B [DRSC12579]: 2.29e7
asRNA:CR43468 + Lfg [DRSC06853]: 1.76e7
Wdr24 [DRSC14151]: 2.14e7
Cln3 [DRSC10520]: 1.99e7
Cpr76Bc [DRSC11062]: 1.25e7
